# Test results from publication PMC13199644, “Optimized Quantitative Bacterial Two-Hybrid (qB2H) for Protein–Protein Interaction Assessment” (Computational and Structural Biotechnology Journal, 2026).
# Protein sequences, listed by entry. Tags and fused reporters are not part of them. Residues count along the entry.
# UniProt Q9NVP2, residues 1-156: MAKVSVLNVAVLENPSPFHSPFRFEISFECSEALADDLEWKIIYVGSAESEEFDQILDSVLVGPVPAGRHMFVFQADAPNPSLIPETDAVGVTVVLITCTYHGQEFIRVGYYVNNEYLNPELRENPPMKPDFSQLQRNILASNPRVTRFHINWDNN
# These are yes or no findings as the source states them, for the method shown. Some entries that bind do so weakly or less than the wild type.
# Molecular target: cI_E34P fusion with the N-terminal domain of human ASF1B, ASF1BN (residues 1 to 156) (human) (UniProt Q9NVP2)
# Test: two-hybrid; qB2H v4 interface mapping: single-mutant position libraries of ASF1BN with rpoA-ip3 or rpoA-HIRA in SB39, kanamycin selection, NGS before and after, enrichment normalized to wild type
substance,measurement,value
"rpoA-HIRA fusion (HIRA residues 442-472, C465S) (from UniProt P54198 442-472) (domain or fragment)",binding,binds
